Source: publication doi:10.1101/2022.06.13.495990

T1: Cilia- and Flagella-Associated Protein 418 (CFAP418), endogenous in mouse retina (mouse (endogenous in mouse retina)) (UniProt Q3UJP5)
T1 sequence: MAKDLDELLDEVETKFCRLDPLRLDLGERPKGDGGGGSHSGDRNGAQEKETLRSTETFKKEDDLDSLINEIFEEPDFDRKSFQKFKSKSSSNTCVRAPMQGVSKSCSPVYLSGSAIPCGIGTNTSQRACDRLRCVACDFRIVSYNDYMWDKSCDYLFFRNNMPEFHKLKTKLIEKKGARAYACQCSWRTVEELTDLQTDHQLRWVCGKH

T2: GST-tagged mouse CFAP418 full-length (mouse) (UniProt Q3UJP5)
T2 sequence: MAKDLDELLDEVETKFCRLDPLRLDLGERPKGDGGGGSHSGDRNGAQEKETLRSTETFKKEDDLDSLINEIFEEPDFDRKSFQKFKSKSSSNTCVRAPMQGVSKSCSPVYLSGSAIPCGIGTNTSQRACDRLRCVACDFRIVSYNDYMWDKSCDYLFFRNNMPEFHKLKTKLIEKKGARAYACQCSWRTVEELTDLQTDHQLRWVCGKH

T3: GST-tagged mouse CFAP418 C-terminal bait (169-209 aa) (mouse) (UniProt Q3UJP5)
T3 sequence: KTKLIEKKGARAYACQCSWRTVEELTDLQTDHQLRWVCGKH


Key:
Experiment in all cases: affinity purification with mass spectrometry
[1] = biological target: T1, Cilia- and Flagella-Associated Protein 418 (CFAP418), endogenous in mouse retina (mouse (endogenous in mouse retina))
[2] = biological target: T2, GST-tagged mouse CFAP418 full-length (mouse)
[3] = biological target: T3, GST-tagged mouse CFAP418 C-terminal bait (169-209 aa) (mouse)

binding [1]	binding [2]	binding [3]	Binder
no binding			VPS4B, endogenous in mouse retina (protein, UniProt P46467 1-444) MASTNTNLQKAIDLASKAAQEDKAGNYEEALQLYQHAVQYFLHVVKYEAQGDKAKQSIRAKCTEYLDRAEKLKEYLKKKEKKPQKPVKEEQSGPVDEKGNDSDGEAESDDPEKKKLQNQLQGAIVIERPNVKWSDVAGLEGAKEALKEAVILPIKFPHLFTGKRTPWRGILLFGPPGTGKSYLAKAVATEANNSTFFSISSSDLVSKWLGESEKLVKNLFQLARENKPSIIFIDEIDSLCGSRSENESEAARRIKTEFLVQMQGVGVDNDGILVLGATNIPWVLDSAIRRRFEKRIYIPLPEAHARAAMFRLHLGSTQNSLTEADFQELGRKTDGYSGADISIIVRDALMQPVRKVQSATHFKKVRGPSRADPNCIVNDLLTPCSPGDPGAIEMTWMDVPGDKLLEPVVSMWDMLRSLSSTKPTVNEQDLLKLKKFTEDFGQEG
	no binding	no binding	VPS4B, endogenous in bovine retina (protein, UniProt Q0VD48 1-444) MASTPTNLQKAIDLASKAAQEDKAGNYEEALQLYQHAVQYFLHVVKYEAQGDKAKQSIRAKCTEYLDRAEKLKEYLKKREKKPQKPVKEGQPAPADEKGNDSDGEGESDDPEKKKLQNQLQGAIVIERPNVKWSDVAGLEGAKEALKEAVILPIKFPHLFTGKRTPWRGILLFGPPGTGKSYLAKAVATEANNSTFFSISSSDLVSKWLGESEKLVKNLFQLARENKPSIIFIDEIDSLCGSRSENESEAARRIKTEFLVQMQGVGVDNDGILVLGATNIPWVLDSAIRRRFEKRIYIPLPEAHARAAMFKLHLGTTQNSLTEADFRDLGKKTEGYSGADISIIVRDALMQPVRKVQSATHFKKVRGPSRADPNNIVDDLLTPCSPGDPGAIEMTWMDVPGDKLLEPVVCMSDMLRSLSSTKPTVNEHDLLKLKKFTEDFGQEG

No constants are given. Whether binding was seen depends on the method and setting. In cells and extracts the contact can be indirect. A yes stands for co-enrichment or nearness to the bait. Other partners may have been found. No binding means not detected with the bait. Sequences can lack the tags named with a protein.
